This passage reports binding results from article PMC3836723.

Protein sequences, listed by entry. Tags and fused reporters are not part of them.
UniProt P05453: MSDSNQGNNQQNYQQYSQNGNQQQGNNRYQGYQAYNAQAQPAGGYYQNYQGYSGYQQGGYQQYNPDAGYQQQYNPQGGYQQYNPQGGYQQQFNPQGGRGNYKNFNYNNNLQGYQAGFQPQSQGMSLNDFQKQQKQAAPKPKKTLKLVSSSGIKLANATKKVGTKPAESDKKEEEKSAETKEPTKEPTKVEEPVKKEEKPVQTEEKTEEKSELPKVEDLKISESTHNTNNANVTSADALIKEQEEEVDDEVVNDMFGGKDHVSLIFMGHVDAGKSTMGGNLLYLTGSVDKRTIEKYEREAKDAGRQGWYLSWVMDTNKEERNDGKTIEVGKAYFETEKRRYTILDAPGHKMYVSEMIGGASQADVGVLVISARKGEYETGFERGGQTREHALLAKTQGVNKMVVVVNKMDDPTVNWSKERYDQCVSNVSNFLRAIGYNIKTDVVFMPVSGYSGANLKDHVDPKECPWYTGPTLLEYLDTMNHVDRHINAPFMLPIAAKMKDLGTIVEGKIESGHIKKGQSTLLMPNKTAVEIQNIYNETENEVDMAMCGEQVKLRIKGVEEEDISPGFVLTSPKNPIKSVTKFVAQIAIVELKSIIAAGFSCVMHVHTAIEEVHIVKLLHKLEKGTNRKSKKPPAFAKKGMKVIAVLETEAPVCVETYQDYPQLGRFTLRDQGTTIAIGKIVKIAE
UniProt Q03195: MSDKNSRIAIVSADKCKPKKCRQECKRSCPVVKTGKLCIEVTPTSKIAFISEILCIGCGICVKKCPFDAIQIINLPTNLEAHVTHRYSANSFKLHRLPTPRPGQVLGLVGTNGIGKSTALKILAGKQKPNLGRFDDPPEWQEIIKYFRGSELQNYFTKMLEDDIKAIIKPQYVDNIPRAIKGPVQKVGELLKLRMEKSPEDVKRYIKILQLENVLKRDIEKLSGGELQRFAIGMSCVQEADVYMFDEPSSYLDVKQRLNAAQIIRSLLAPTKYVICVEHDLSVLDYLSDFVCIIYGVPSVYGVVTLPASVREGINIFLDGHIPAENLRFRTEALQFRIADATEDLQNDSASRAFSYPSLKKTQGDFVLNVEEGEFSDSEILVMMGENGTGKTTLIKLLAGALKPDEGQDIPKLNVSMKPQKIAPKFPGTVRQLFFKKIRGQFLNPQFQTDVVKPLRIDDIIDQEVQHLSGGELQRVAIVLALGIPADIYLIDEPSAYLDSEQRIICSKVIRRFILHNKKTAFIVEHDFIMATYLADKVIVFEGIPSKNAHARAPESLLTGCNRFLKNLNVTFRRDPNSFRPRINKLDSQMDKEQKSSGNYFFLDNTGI
UniProt P32905: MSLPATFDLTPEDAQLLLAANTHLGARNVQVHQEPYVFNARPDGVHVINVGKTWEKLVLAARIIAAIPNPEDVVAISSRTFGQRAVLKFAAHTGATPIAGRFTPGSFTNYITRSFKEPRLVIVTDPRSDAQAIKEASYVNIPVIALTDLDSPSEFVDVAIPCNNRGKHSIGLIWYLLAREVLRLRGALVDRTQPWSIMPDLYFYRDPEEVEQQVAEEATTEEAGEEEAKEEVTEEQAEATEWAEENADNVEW
UniProt P32911: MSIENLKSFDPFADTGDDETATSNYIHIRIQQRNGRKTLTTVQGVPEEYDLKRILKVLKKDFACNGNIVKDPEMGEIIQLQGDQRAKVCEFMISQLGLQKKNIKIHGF
UniProt Q05775: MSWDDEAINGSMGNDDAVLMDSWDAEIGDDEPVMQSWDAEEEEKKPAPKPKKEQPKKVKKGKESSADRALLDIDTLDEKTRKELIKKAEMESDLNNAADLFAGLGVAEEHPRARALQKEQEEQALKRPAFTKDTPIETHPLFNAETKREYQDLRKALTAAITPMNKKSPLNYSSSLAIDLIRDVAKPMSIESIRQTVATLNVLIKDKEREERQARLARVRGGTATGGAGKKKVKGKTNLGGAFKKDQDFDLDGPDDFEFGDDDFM

These are yes or no findings as the source states them, for the method shown. In cells and extracts the contact can be indirect. Some entries that bind do so weakly or less than the wild type.

One test concerns the target TAP-tagged eRF3 (yeast) (UniProt P05453). The experiment in a line: pull-down; TAP-tagged chromosomal alleles; cells treated with 1% HCHO before harvest; WCE (1 mg protein) in buffer B (50 mM Tris-HCl pH 7.6, 150 mM NaCl, 0.05% Tween 20) with or without 0.1 mg/ml RNase A; IgG Sepharose 6 Fast Flow beads, 2 h at 4°C; eluted by boiling in SDS buffer or by TEV …; untagged wt strain as control; Western analysis.

In a further test the target is Myc-tagged RLI1 (yeast) (UniProt Q03195). Briefly: co-IP; WCE of yeast YDH353 (chromosomal Myc-tagged RLI1), 500 µg total protein, 1 µl mouse anti-Myc-Tag IgG, with or without antibody; lysis in buffer A (30 mM HEPES pH 8.8, 20 mM KAc, 3 mM magnesium acetate, 1 mM DTT, 1% Nonidet P-40); Western analysis.

In the case of RPS0A (from UniProt P32905 1-252), the binding entry with TAP-tagged eRF3 (yeast) and in the test with Myc-tagged RLI1 (yeast) was “no binding” throughout.

With eIF1 (from UniProt P32911 1-108), the binding entry with TAP-tagged eRF3 (yeast) was “no binding”.

With eIF3j/HCR1 (from UniProt Q05775 1-265), the binding entry in the test with Myc-tagged RLI1 (yeast) is listed as “binds”.
